Data source: PubChem BioAssay AID504744 (Drosophila RNAi Screening Center, 2011)

Purpose: 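Uncover factors, including feedback loops, that control dAkt activation in fly cells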 (primary screen)
System: Drosophila Kc167 cells
Reagents: long dsRNA against Drosophila genes, 250 ng dsRNA per well of a 384-well plate
Duration: 3 days of knock-down, then overnight serum-free starvation before stimulation
Conditions: bovine insulin at 387 nM for 10 minutes after 12 h without serum
Measurement: 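Per-well phospho-dAkt level from an in-cell fluorescent antibody stain, divided by a DNA-dye signal; log2 residuals turned into z-scores that take cell number into account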
Active means: 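Under insulin, a gene counts as a hit if the average z-score of two replicates lies above 2.5 or below -2.5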
In all, the deposit lists about 23,000 reagents; shown is a random part of those that have a named target and a result. Of all reagents, 98 (0.43%) are marked active. 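Only hit calls are given; the phospho-dAkt signals, z-scores and hit direction were not deposited.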 A plus sign joins genes that one reagent is predicted to hit.

target gene	amplicon	call
CSN5	DRSC16592	inactive
CSN5	DRSC22381	inactive
CG44001 + CG33995	DRSC00853	inactive
CG44001 + CG33995	DRSC02898	inactive
Map60	DRSC07464	inactive
CG2701	DRSC18590	inactive
CG10384	DRSC03933	inactive
CG10384	DRSC04067	inactive
CG30043	DRSC06285	inactive
wat	DRSC14854	inactive
Hand	DRSC02656	inactive
CG11110	DRSC06037	inactive
loj	DRSC09791	inactive
CG5071	DRSC15710	inactive
CG5071	DRSC22570	inactive
Idgf5	DRSC06919	inactive
aux	DRSC12161	inactive
CG5645	DRSC10532	inactive
CG4914	DRSC10458	inactive
CG31253 + CG31131	DRSC13839	inactive
ZnT63C	DRSC08032	inactive
ZnT63C	DRSC08033	inactive
ZnT63C	DRSC08519	inactive
ZnT63C	DRSC21989	inactive
fd3F (retired record) + Crg-1	DRSC17283	inactive
Nep4	DRSC15539	inactive
Muc30E	DRSC01101	inactive
CG17283	DRSC15219	inactive
Sras	DRSC11287	inactive
djl	DRSC12578	inactive
CG31998	DRSC17137	inactive
CG31998	DRSC17138	inactive
Sec6	DRSC06932	inactive
CG1827	DRSC06719	inactive
Mid1	DRSC04230	inactive
Mid1	DRSC04231	inactive
Mid1	DRSC04308	inactive
Mid1	DRSC22773	inactive
Mid1	DRSC22803	inactive
blo	DRSC05937	inactive
Gr66a	DRSC10783	inactive
LanB1	DRSC03360	inactive
CG12945	DRSC14573	inactive
CG4577	DRSC00658	inactive
Madm	DRSC12129	inactive
CG40948 (retired record)	DRSC20944	inactive
Usp32	DRSC10979	inactive
OtopLb	DRSC00594	active
Cyp6a20	DRSC07380	inactive
CG33640	DRSC01324	inactive
CG7402	DRSC10839	inactive
HP1c	DRSC16166	inactive
WASp	DRSC15032	inactive
CG5913	DRSC15916	inactive
CG1360	DRSC06406	inactive
CG5250	DRSC15752	inactive
tau	DRSC14569	inactive
CG14929 + CG4970 + CG14930	DRSC02412	inactive
CG6028	DRSC15951	inactive
CG15373	DRSC19663	inactive
Bx42	DRSC17743	inactive
CG11060	DRSC06029	inactive
CG6592	DRSC10669	inactive
CG4766	DRSC17736	inactive
CG3862	DRSC00631	inactive
Sema5c	DRSC11279	inactive
Rpt3R	DRSC16501	inactive
CG9380	DRSC04549	inactive
Shc	DRSC11284	inactive
Grd	DRSC11178	inactive
CG44153	DRSC02228	inactive
CG44153	DRSC02229	inactive
CG44153	DRSC02902	inactive
CG44153	DRSC02903	inactive
CG4707	DRSC04483	inactive
kri	DRSC10515	inactive
CG30091	DRSC21809	inactive
hbt	DRSC02503	inactive
CAH3	DRSC17776	inactive
icln	DRSC07630	inactive
HSPBAP1	DRSC14567	inactive
CG30380	DRSC05069	inactive
CG8187	DRSC07099	inactive
CG15096	DRSC06525	inactive
CG30270	DRSC22890	inactive
Snmp2	DRSC10228	inactive
Snmp2	DRSC10843	inactive
MFS14	DRSC06524	inactive
LanB2	DRSC11208	inactive
RluA-1	DRSC02240	inactive
RluA-1	DRSC03060	inactive
lov	DRSC04279	inactive
lov	DRSC04665	inactive
NO66	DRSC18252	inactive
Pex12	DRSC00622	inactive
lncRNA:CR30009	DRSC22952	inactive
CG5062	DRSC18385	active
CG6294 + CG6299 + CG15642	DRSC19981	inactive
CG13045	DRSC09926	inactive
CG13727	DRSC10055	inactive
CG42254 (retired record)	DRSC06194	inactive
CG6484	DRSC06991	inactive
SmD1	DRSC09800	inactive
CG15771	DRSC18077	inactive
lncRNA:bxd	DRSC13176	inactive
Saf6	DRSC00633	inactive
CG6244	DRSC10609	inactive

In a second layout: results already given.
target gene,amplicon,call
kri,DRSC10515,inactive
CG30091,DRSC21809,inactive
hbt,DRSC02503,inactive
CAH3,DRSC17776,inactive
icln,DRSC07630,inactive
HSPBAP1,DRSC14567,inactive
CG30380,DRSC05069,inactive
CG8187,DRSC07099,inactive
CG15096,DRSC06525,inactive
CG30270,DRSC22890,inactive
Snmp2,DRSC10228,inactive
Snmp2,DRSC10843,inactive
MFS14,DRSC06524,inactive
LanB2,DRSC11208,inactive
RluA-1,DRSC02240,inactive
RluA-1,DRSC03060,inactive
